Measurements reported in PubChem BioAssay AID1159578 (Peter MacCallum Cancer Centre, 2015).
The deposit covers about 18,000 reagents; this is a random part of them. Over the whole deposit, about 1,030 (5.7%) are marked active. 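Inactive calls also include pools with fewer than 3300 nuclei, whose migration was not assessed.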 Raw values vary from plate to plate and are shown uncorrected.

Aim: 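siRNA pools altering how lymphatic endothelial cells close a scratch wound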 (primary screen)
Cells: human lymphatic endothelial cells
Knock-down reagent: siRNA pool against human genes, 40 nM
Time to read-out: 48 h after transfection
Read-out: 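High-content imaging of dye-stained cells in a scratch assay measures filled wound area and nuclei per well; duplicate means given as ratio to mock and robust z-score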
Direction: migration robust z-score: higher = faster migration into the scratch; migration relative to mock: higher = more scratch area covered than mock; nuclei per well: higher = more cells in the well
Active means: 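Pools averaging fewer than 3300 nuclei are never called; remaining pools count as changed when migration robust z lies outside -2 to 2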
Calls: active = migration changed; inactive = no migration change, or too few cells

Target gene	migration robust z-score	migration class with cell-count check	migration relative to mock	nuclei per well, duplicate mean	outcome
PPP1R3F (protein phosphatase 1 regulatory subunit 3F)	-1.65	migration z between -2 and 2; enough cells	0.46	6558	inactive
TRAPPC4 (trafficking protein particle complex subunit 4)	-0.31	migration z between -2 and 2; enough cells	0.8	5607	inactive
MPZ (myelin protein zero)	0.36	migration z between -2 and 2; enough cells	0.98	5798	inactive
EHD4 (EH domain containing 4)	-0.62	migration z between -2 and 2; enough cells	0.68	5384	inactive
HMGB1 (high mobility group box 1)	-1.46	migration z between -2 and 2; enough cells	0.52	5594	inactive
MAZ (MYC associated zinc finger protein)	0.65	migration z between -2 and 2; enough cells	0.93	5413	inactive
HS6ST1 (heparan sulfate 6-O-sulfotransferase 1)	-1.02	migration z between -2 and 2; enough cells	0.61	5479	inactive
STK33 (serine/threonine kinase 33)	-3.17	migration z below -2; enough cells	0.2	3798	active
STRA8 (stimulated by retinoic acid 8)	0.11	migration z between -2 and 2; enough cells	0.92	4232	inactive
TIMP4 (TIMP metallopeptidase inhibitor 4)	1.31	migration z between -2 and 2; enough cells	1.23	6306	inactive
RAB19 (RAB19, member RAS oncogene family)	-1.25	migration z between -2 and 2; enough cells	0.56	5356	inactive
GRIK5 (glutamate ionotropic receptor kainate type subunit 5)	1.9	migration z between -2 and 2; enough cells	1.17	6470	inactive
IL17B (interleukin 17B)	-0.64	migration z between -2 and 2; enough cells	0.72	5654	inactive
TBC1D7 (TBC1 domain family member 7)	0.08	migration z between -2 and 2; enough cells	0.9	6527	inactive
FMOD (fibromodulin)	-0.18	migration z between -2 and 2; enough cells	0.84	5423	inactive
LGR5 (leucine rich repeat containing G protein-coupled receptor 5)	0.46	migration z between -2 and 2; enough cells	0.9	6613	inactive
IRF6 (interferon regulatory factor 6)	0.57	migration z between -2 and 2; enough cells	0.92	5268	inactive
OR2H1 (olfactory receptor family 2 subfamily H member 1)	-0.6	migration z between -2 and 2; enough cells	0.73	6671	inactive
AQP8 (aquaporin 8)	1.01	migration z between -2 and 2; enough cells	1	4914	inactive
ATF3 (activating transcription factor 3)	0.44	migration z between -2 and 2; enough cells	0.89	5858	inactive
PHTF1 (putative homeodomain transcription factor 1)	0.02	migration z between -2 and 2; enough cells	0.81	3824	inactive
CIDEA (cell death inducing DFFA like effector a)	0.12	migration z between -2 and 2; enough cells	0.91	4344	inactive
EIF4G3 (eukaryotic translation initiation factor 4 gamma 3)	0.13	migration z between -2 and 2; enough cells	0.92	5750	inactive
SAMD11 (sterile alpha motif domain containing 11)	-1.7	migration z between -2 and 2; enough cells	0.44	6362	inactive
PLOD3 (procollagen-lysine,2-oxoglutarate 5-dioxygenase 3)	-1.17	migration z between -2 and 2; enough cells	0.58	4368	inactive

Ordered by “migration robust z-score” (highest first): 3 of the entries above
Target gene	migration robust z-score	migration class with cell-count check	migration relative to mock	nuclei per well, duplicate mean	outcome
GRIK5 (glutamate ionotropic receptor kainate type subunit 5)	1.9	migration z between -2 and 2; enough cells	1.17	6470	inactive
TBC1D7 (TBC1 domain family member 7)	0.08	migration z between -2 and 2; enough cells	0.9	6527	inactive
IL17B (interleukin 17B)	-0.64	migration z between -2 and 2; enough cells	0.72	5654	inactive

Continued:
Target gene	migration robust z-score	migration class with cell-count check	migration relative to mock	nuclei per well, duplicate mean	outcome
ACTN1 (actinin alpha 1)	-0.16	migration z between -2 and 2; enough cells	0.78	6380	inactive
FAM135B (family with sequence similarity 135 member B)	1.25	migration z between -2 and 2; enough cells	1.21	6256	inactive
CYREN (cell cycle regulator of NHEJ)	-1.83	migration z between -2 and 2; enough cells	0.41	5658	inactive
DYNC2I1 (dynein 2 intermediate chain 1)	0.36	migration z between -2 and 2; enough cells	0.98	6256	inactive
PCYT1B (phosphate cytidylyltransferase 1B, choline)	1.29	migration z between -2 and 2; enough cells	1.06	5474	inactive
GDF9 (growth differentiation factor 9)	0	migration z between -2 and 2; enough cells	0.8	5234	inactive
RPS19 (ribosomal protein S19)	-2.17	migration z below -2; enough cells	0.32	3682	active
PDLIM5 (PDZ and LIM domain 5)	1.15	migration z between -2 and 2; enough cells	1.18	5816	inactive
AP5B1 (adaptor related protein complex 5 subunit beta 1)	0.84	migration z between -2 and 2; enough cells	1.1	5312	inactive
CXCR6 (C-X-C motif chemokine receptor 6)	0	migration z between -2 and 2; enough cells	0.8	6302	inactive
CD24 (CD24 molecule)	-5.06	under 3300 nuclei; migration not judged	-0.42	2200	inactive
TRHR (thyrotropin releasing hormone receptor)	-2	migration z between -2 and 2; enough cells	0.42	4712	inactive
TMEM184A (transmembrane protein 184A)	-1.5	migration z between -2 and 2; enough cells	0.5	5358	inactive
HSF1 (heat shock transcription factor 1)	1.34	migration z between -2 and 2; enough cells	1.06	5472	inactive
OR4K15 (olfactory receptor family 4 subfamily K member 15)	0	migration z between -2 and 2; enough cells	0.88	5756	inactive
MRPL12 (mitochondrial ribosomal protein L12)	-0.08	migration z between -2 and 2; enough cells	0.86	6337	inactive
ATG4C (autophagy related 4C cysteine peptidase)	1.92	migration z between -2 and 2; enough cells	1.17	5604	inactive
NCOA7 (nuclear receptor coactivator 7)	-0.9	migration z between -2 and 2; enough cells	0.65	5284	inactive
KDM4A (lysine demethylase 4A)	-1.95	migration z between -2 and 2; enough cells	0.43	5180	inactive
CEBPG (CCAAT enhancer binding protein gamma)	-1.04	migration z between -2 and 2; enough cells	0.6	4658	inactive
PNMA8B (PNMA family member 8B)	-1.23	migration z between -2 and 2; enough cells	0.56	5278	inactive
ARHGEF18 (Rho/Rac guanine nucleotide exchange factor 18)	-0.26	migration z between -2 and 2; enough cells	0.76	5394	inactive
LIPJ (lipase family member J)	0.49	migration z between -2 and 2; enough cells	0.9	7146	inactive
VWA7 (von Willebrand factor A domain containing 7)	0.48	migration z between -2 and 2; enough cells	1.01	6214	inactive
FNBP1 (formin binding protein 1)	1.12	migration z between -2 and 2; enough cells	1.17	5548	inactive
TGFB1I1 (transforming growth factor beta 1 induced transcript 1)	-0.96	migration z between -2 and 2; enough cells	0.62	6403	inactive
ZNF136 (zinc finger protein 136)	0.29	migration z between -2 and 2; enough cells	0.86	5447	inactive
EHD3 (EH domain containing 3)	1.56	migration z between -2 and 2; enough cells	1.29	5112	inactive
GRHL2 (grainyhead like transcription factor 2)	-1.13	migration z between -2 and 2; enough cells	0.6	5297	inactive
HPS5 (HPS5 biogenesis of lysosomal organelles complex 2 subunit 2)	1.28	migration z between -2 and 2; enough cells	1.22	6342	inactive
ATP13A5 (ATPase 13A5)	-1.89	migration z between -2 and 2; enough cells	0.44	5277	inactive
C1QTNF8 (C1q and TNF related 8)	-0.75	migration z between -2 and 2; enough cells	0.69	6002	inactive
